Assay results reported in patent US6068987A, “Histone deacetylase as target for antiprotozoal agents” (Merck & Co., Inc., priority 1999, dated 2000).
At least one structure is not confirmed: it was looked up by name or label, or the drawing left a doubt.

Columns and labels:
[1] = molecular target: histone deacetylase (chicken liver extracts); assay: Histone deacetylase inhibition assay (Assay 1), chicken liver extract; assay type: biochemical
Procedure: (§1) The standard assay contained in a total volume of 40 μL: 400 nmol HEPES-sodium, pH 7.4, 100 pmol of the substrate [AcGly-Ala-Lys(ε-^14 C-Ac)-Arg-His-Arg-Lys(ε-^14 C-Ac)-ValNH2 ] (see Kervabon et al (1979) FEBS Letters 106: 93-96) having a specific activity of approx. 114 mCi/mmol, and a source of histone deacetylase (HDAase) activity. The amount of HDAase added was chosen such that ≤20% of the substrate was consumed during the assay. The reaction was initiated by enzyme addition and allowed to proceed for 60 min at 41°. At 60 min, the reaction was terminated by the addition of a 50% slurry of Amberlite AG 50 W×4 cation exchange resin, sodium form (200-400 mesh) in 25 mM sodium acetate buffer, pH 4.2 (200 μL). The resin binds both remaining substrate and the (partially) deacetylated peptidyl products. The quenched reaction was then incubated for at least 30 min at 25° with occassional mixing, diluted with additional 25 mM sodium acetate buffer, pH 4.2 (760 μL; final volume 1000 μL), incubated for a minimum of an additional 30 min at 25° with occassional mixing, and then centrifuged at 10,000×g for 1 min. An aliquot of the supernatant (800 μL) containing the enzymatically released ^14 C-acetate was removed, mixed with Aquasol 2 liquid scintillation counter (LSC) cocktail (10 mL), and counted in a Beckman model LS-5801 LSC. […]

[2] = molecular target: Eimeria HDAase (histone deacetylase); assay: Histone deacetylase inhibition assay (Assay 1), E. tenella extract; assay type: biochemical, Eimeria tenella
Procedure: as §1

Structure (SMILES): CCCC(=O)O [n-butyrate]
- IC50 in enzyme inhibition assay, chicken liver extract [1]: consistent with those reported in the literature
- IC50 in enzyme inhibition assay, E. tenella extract [2]: consistent with those reported in the literature
